These are yes or no findings as the source states them, for the method shown. Binding seen in cells or lysates may run through a third protein. Binding can be weak; no strength is given. Tags and fused reporters may be left off the sequences shown.
What was measured:
[1] = molecular target: GST-HDAC3; test: GST pull-down from 293T lysates co-expressing GST-HDAC3 and Flag-sLZIP, with or without 10 nM RZD for 24 h (FIG. 5D)
[2] = molecular target: GST-HDAC3; test: GST pull-down from 293T lysates co-expressing GST-HDAC3 and Flag-sLZIP, immunoblot (FIG. 4E)
[3] = molecular target: GST-HDAC3; test: conclusion from the GST pull-down of FIG. 4E

Measured: binding

B1: Flag-sLZIP (protein, not shown: small tags and cut ends)
chain: MELELDAGDQDLLAFLLEESGDLGTAPDEAVRAPLDWALPLSEVPSDWEVDDLLCSLLSPPASLNILSSSNPCLVHHDHTYSLPRETVSMDLESESCRKEGTQMTPQHMEELAEQEIARLVLTDEEKSLLEKEGLILPETLPLTKTEEQILKRVRRKIRNKRSAQESRRKKKVYVGGLESRVLKYTAQNMELQNKVQLLEEQNLSLLDQLRKLQAMVIEISNKTSSSSMYSSDTRGSLPAEHGVLSRQLRALPSEDPYQLELPALQSEVPKDSTHQWLDGSDCVLQAPGNTSCLLHYMPQAPSAEPPLEWPFPDLFSEPLCRGPILPLQANLTRKGGWLPTGSPSVILQDRYSG
binds: all assays above
